{
  "sequences": {"note": "Sequences of proteins named here, by UniProt entry; tags and fusion partners are left off. Residues count along the entry.", "UniProt P02768, residues 25-609": "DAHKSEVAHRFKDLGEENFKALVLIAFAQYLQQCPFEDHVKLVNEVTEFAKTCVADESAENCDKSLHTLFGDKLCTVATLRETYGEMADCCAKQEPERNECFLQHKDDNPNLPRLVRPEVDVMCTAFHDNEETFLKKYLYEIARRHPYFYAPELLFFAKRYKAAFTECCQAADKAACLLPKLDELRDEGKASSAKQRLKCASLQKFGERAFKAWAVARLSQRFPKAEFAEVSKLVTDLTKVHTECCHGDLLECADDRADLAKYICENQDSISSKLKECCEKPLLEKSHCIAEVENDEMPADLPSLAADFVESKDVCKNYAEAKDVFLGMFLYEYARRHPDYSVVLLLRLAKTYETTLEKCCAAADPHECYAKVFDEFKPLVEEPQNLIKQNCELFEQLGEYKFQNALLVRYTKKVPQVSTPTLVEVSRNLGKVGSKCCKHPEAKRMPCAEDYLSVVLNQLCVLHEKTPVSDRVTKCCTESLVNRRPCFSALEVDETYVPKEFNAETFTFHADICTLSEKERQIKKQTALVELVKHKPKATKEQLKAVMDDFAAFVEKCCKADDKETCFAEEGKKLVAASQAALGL"},
  "source": "paper PMC2522270",
  "biological_target": "albumin (human (endogenous in plasma)) (UniProt P02768)",
  "test": "co-sedimentation; only the binder purified",
  "note": "These are yes or no findings as the source states them, for the method shown. In cells and extracts the contact can be indirect. A result given as binding can be weak or reduced; the word gives no strength.",
  "data": [
    {"substance": "M1 protein of Streptococcus pyogenes (recombinant) (from UniProt Q99XV0)", "values": [
      {"measurement": "binding", "result": "binds"}
    ]}
  ]
}
